Assay results from US20160271157A1, “BETA-CATENIN” (UCL BUSINESS PLC, priority 2013, published 2016).
For at least one compound, name, drawing or mass did not settle the structure.

Legend:
[1] = system: PC3 prostate cancer cell line; experiment: Cell proliferation assay, live imaging (Incucyte), PC3; type: cell-based; conditions: PC3 cells, nicorandil shown as an example
Procedure: Growth curve was monitored at 37° C. in a CO2 incubator by using time lapse imaging with Incucyte (Essen Biosciences) for up to 150 h after plating the cells (t=o) at a density of 25-100 k cells per well in a 6 well plate (Nunc). MPRCs were added at the stated concentrations 24 h after cell plating;
A live imaging system (Incucyte, EssenBiosciences) was used to measure the effect of K^+ channel inhibitors on the rate of cell proliferation. PC3 cells were plated on 6 well plates (Nunc) in 3 ml culture medium (Wang et al (2010) PLoS ONE 5, e10456); K^+ channel inhibitors were added to the wells at 0-15 mM. The plates were placed in Incucyte in a standard cell culture incubator at 37° C. and CO2. Each well was imaged at an interval of up to 4 h and rate of cell proliferation was calculated from these images using Incucyte software.

[2] = system: Wnt induced calcium release; experiment: Wnt induced [Ca2+]i release after preincubation with thapsigargin or membrane potential regulating compounds; type: cell-based
Procedure: The imaging protocol was developed in the inventor's laboratory and has been described in detail, elsewhere (Wang at al., (2010) PLoS ONE 5, e10456). Briefly, 100000-200000 PC3, MCF7, 253J or Cos 7 cells were plated on 35 mm FluoroDish (WPI) and grown for 48 h; calcium indicators Fluo-4 (Invitrogen) and FuraRed (Invitrogen) at 1 ng/ml were added to FluoroDish containing only 1 ml of culture medium and incubated for 15-20 min at 37° C. The culture medium was removed and washed (×2) and replaced with 1 ml PBS. Live cell calcium Imaging was performed on an Olympus FluoView FV 1000 confocal microscope (Olympus KeyMed) equipped with a 20× dry objective (numerical aperture=0.75). Calcium indicators were excited with an argon laser line (488 nm) and emissions recorded in the green channel (500-560 nm) for Fluo-4 and red channel (600-700 nm) for FuraRed after addition of vehicle control (PBS) or Wnt X (30-600 ng/ml). Images were acquired every 1.1 or 2.2 seconds for up to 600-800s; image and data acquisition was performed using FluoView 1000 software (Olympus, UK). Fluorescent intensity was measured and data exported as a tab delimited file for further analysis using a spreadsheet. All imaging experiments were performed in duplicate; intracellular calcium at 100 ng/ml was measured in at least 3-12 different passages (passage numbers 25 to 37) of cell line for each Wnt ligand. […]

[3] = system: MCF7 breast cancer cell line; experiment: Cell growth, time lapse imaging (Incucyte), MCF7; type: cell-based, human; conditions: MCF7 cells, nicorandil shown as an example
Procedure: Growth curve was monitored at 37° C. in a CO2 incubator by using time lapse imaging with Incucyte (Essen Biosciences) for up to 150 h after plating the cells (t=o) at a density of 25-100 k cells per well in a 6 well plate (Nunc). MPRCs were added at the stated concentrations 24 h after cell plating.

COc1ccc(C(=O)O[C@H]2CC[C@@]3(C)[C@@H]4CC[C@H]5[C@]6(O)C[C@H](O)[C@@]7(O)[C@@H](CN8C[C@@H](C)CC[C@H]8[C@@]7(C)O)[C@]6(O)C[C@@]53O[C@]24O)cc1OC [Veratradine, Veratridine]
do not inhibit: cell proliferation (FIG. 22 C) [1] | Wnt signaling measured using intracellular calcium release (FIG. 22 A and B) [2] | cell proliferation (FIG. 22 D) [3]
